Test results from patent publication US11353463B2, “Redox-based reagents for methionine bioconjugation” (The Regents of the University of California, priority 2016, dated 2022).

Legend:
HeLa cell lysates [1] = experiment: Sites of probe labeling within a whole proteome by LC-MS/MS; design: species or system Human; details: Ox4 1 mM, 10 min, trypsin digest, X!Tandem
HeLa cell lysates [2] = experiment: Reactive methionine profiling (TOP-ABPP); design: species or system Human; details: n=2

C#CCNC(=O)N1OC1c1ccccc1 (stereo not drawn) [Ox4, 3-Phenyl-N-(prop-2-yn-1-yl)-1,2-oxaziridine-2-carboxamide]
modifications on cysteine side chains or other nucleophilic amino acids (HeLa cell lysates [1]): no other modifications detected | number of labeled lysine residues (HeLa cell lysates [1]): single | number of labeled methionine residues (HeLa cell lysates [1]): 235 | peptides that carry the ReACT methionine modification (HeLa cell lysates [2]; high dose, 250 μM probe): 1118 | peptides that carry the ReACT methionine modification (HeLa cell lysates [2]; low dose, 10 μM probe): 116 | peptides that carry the ReACT methionine modification (HeLa cell lysates [2]; medium dose, 50 μM probe): 458
